From article PMC7819943, “Rice protein-binding microarrays: a tool to detect cis-acting elements near promoter regions in rice”
This is one part of the list.

biological target: T1, OsSMF1 (Oryza sativa, UniProt Q6ZLB0 1-436); assay: protein-binding microarray (RPBM); PBS, 2% BSA, 51.3 ng/ul salmon testes DNA, 50 uM zinc acetate, 200 nM TF, 25 C, 1 h; high values mean tight binding; details: protein: recombinant; tags: N-terminal polyhistidine and DsRed monomer fusion (pET32a); chain copies: 2; label: CyDye5-dUTP incorporated in the synthesized complementary strand; 3' TTTTT single-stranded linker to array surface; dsDNA, one strand shown
T1 sequence: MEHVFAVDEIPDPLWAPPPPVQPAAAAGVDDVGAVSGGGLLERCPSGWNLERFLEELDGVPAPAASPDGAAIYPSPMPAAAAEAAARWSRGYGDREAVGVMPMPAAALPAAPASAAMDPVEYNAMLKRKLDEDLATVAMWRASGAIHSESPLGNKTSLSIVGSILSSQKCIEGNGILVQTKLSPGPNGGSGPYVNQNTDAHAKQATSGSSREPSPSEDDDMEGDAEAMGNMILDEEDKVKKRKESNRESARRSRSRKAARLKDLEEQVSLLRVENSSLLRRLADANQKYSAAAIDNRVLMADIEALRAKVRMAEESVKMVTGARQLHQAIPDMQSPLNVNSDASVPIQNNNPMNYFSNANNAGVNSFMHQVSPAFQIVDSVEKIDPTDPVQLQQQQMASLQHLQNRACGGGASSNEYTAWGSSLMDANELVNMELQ
In short: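 Binding signal is reported as fluorescence intensity per feature (arbitrary units) from an Axon 4000B scanner. Incubation used 200 nM of each Ni–NTA-purified, N-terminally polyhistidine- and DsRed-fused transcription factor from E. coli BL21-CodonPlus on a double-stranded custom Agilent array for 1 h at 25 °C, with 50 µM zinc acetate in the buffer, followed by washing.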

Sequence	binding signal
TGCTACAGCTACAATGTGGCGTCACTATGGGTATACACATCGGAGTCACCTAGTGCAG	23800 fluorescence intensity (a.u.)
AAACAAGACATACACATACTTATTGTGTTTTGTCACGTCACGGAGTCACCTAGTGCAG	6450 fluorescence intensity (a.u.)
GGGATCTGTAATGTTGGTATACGACACAGCTTGCAGAAAACGGAGTCACCTAGTGCAG	4840 fluorescence intensity (a.u.)
CAATCCTCTTTGGGAGGATATGGCTTTTGAGTTTGTGAATCGGAGTCACCTAGTGCAG	3290 fluorescence intensity (a.u.)
CATGTAGAACCCACATGAGTCAATCACATGTGGGTCAGGACGGAGTCACCTAGTGCAG	3990 fluorescence intensity (a.u.)
ACTGGCTTCAATTTATCTATAGCTAATCTAATAGCTAATTCGGAGTCACCTAGTGCAG	33900 fluorescence intensity (a.u.)
ACCGTTTTGGGATGCCATGACCGACACACTAACAACCGCTCGGAGTCACCTAGTGCAG	3190 fluorescence intensity (a.u.)
GCATGGCCCATCGTACTTGGCTTTGCCACCTTTCGGTGTGCGGAGTCACCTAGTGCAG	3300 fluorescence intensity (a.u.)
TAAAATTATTATATTTTATAAGAAAGGTAACAAGTAAACACGGAGTCACCTAGTGCAG	28600 fluorescence intensity (a.u.)
TATATATACACGTCTATACCCACACGTTGATTAATGCGAGCGGAGTCACCTAGTGCAG	4960 fluorescence intensity (a.u.)
AGCAGAGCTCGCGTGTCGTCGTGTCCTCTCCTCGTTGATCCGGAGTCACCTAGTGCAG	4550 fluorescence intensity (a.u.)
GGACAACGAATTACCCTCACTCTCGTGTTCTCCGCTGAGTCGGAGTCACCTAGTGCAG	3460 fluorescence intensity (a.u.)
CAAATCATGTCATCAAAATAATTACTCCGATCGCTAACACCGGAGTCACCTAGTGCAG	3410 fluorescence intensity (a.u.)
TGTAAACTTTTATGATCATTTAGGAGCTCTGGACAGTAATCGGAGTCACCTAGTGCAG	18200 fluorescence intensity (a.u.)
TAACCTTTTGATCGGATGTTAAGCAAGAACCATTAACTAGCGGAGTCACCTAGTGCAG	3670 fluorescence intensity (a.u.)
AATGGCTTACTGGCAAAATGATGCATCCGATGACCTCATTCGGAGTCACCTAGTGCAG	3330 fluorescence intensity (a.u.)
TGGAGGTTATGAATCATACTCGGACGATAGTTAAGGGAGTCGGAGTCACCTAGTGCAG	49700 fluorescence intensity (a.u.)
GGTACTAAACTCCACATGCATGCCATCTCATGAGGTGGGCCGGAGTCACCTAGTGCAG	3350 fluorescence intensity (a.u.)
TAAATGGAAGAAACCACAAGTTTGTTCCACGCAATGCCCCCGGAGTCACCTAGTGCAG	5270 fluorescence intensity (a.u.)
TGGTTGTATTAGGTTAATAAGCCACGTCAGTGAAAAGCACCGGAGTCACCTAGTGCAG	16100 fluorescence intensity (a.u.)
AGCTGGGCCCCACACGTCATCCACCGCCGATCCTTTCGTTCGGAGTCACCTAGTGCAG	14500 fluorescence intensity (a.u.)

Sequence	binding signal
CTCAGCTCAGCTCACTCATCGGTAGCAGTGTGTACTCTAGCGGAGTCACCTAGTGCAG	3290 fluorescence intensity (a.u.)
TGTCATGCATCCATTAGAAGATGAGGCTATAGTTTTGTATCGGAGTCACCTAGTGCAG	26300 fluorescence intensity (a.u.)
TTGATAGTGTTCAGAGGCAAGTGTGACCGGAGGTGGAGATCGGAGTCACCTAGTGCAG	3550 fluorescence intensity (a.u.)
GAGACTTTCTCGCGTGTCATTCAAACTAAGGCAACCTAAGCGGAGTCACCTAGTGCAG	4070 fluorescence intensity (a.u.)
CGTGATTAGAATCCATCTCCGACCGACCGCACATACAAAGCGGAGTCACCTAGTGCAG	30700 fluorescence intensity (a.u.)
GAAATGAGGGGTGGGATTGGGATTGGGATTGGAAAATGAACGGAGTCACCTAGTGCAG	3830 fluorescence intensity (a.u.)
GGCGAAAATGCAGCACGTACGTGTATGCTAGCTTCAATTCCGGAGTCACCTAGTGCAG	3140 fluorescence intensity (a.u.)
GTGGTGATCATGCCACGATGGAGACGAGTGGCCGAGTCGTCGGAGTCACCTAGTGCAG	3670 fluorescence intensity (a.u.)
GGATGATGCTTGGTGGGTAGGAGGACTAGGAGTGCGGCGGCGGAGTCACCTAGTGCAG	3500 fluorescence intensity (a.u.)
CTGTGTGACAATATATATCGTTAACTTAACTATTATTCAACGGAGTCACCTAGTGCAG	5300 fluorescence intensity (a.u.)
AGTCTTTAACATGTGGACTCAGGATTCTTATGTGGCAATTCGGAGTCACCTAGTGCAG	7440 fluorescence intensity (a.u.)
GTGGGGAAAGATAAGTGTGTGTGGGTGTGGCAATAAAGGTCGGAGTCACCTAGTGCAG	4030 fluorescence intensity (a.u.)
CGAGATCTCATCGATCAGTCACAGTGACGCAGTGAGCACTCGGAGTCACCTAGTGCAG	5790 fluorescence intensity (a.u.)
GGCGTCTTCCGCCACGACGACTGGATCGGCCGCCCCTTCGCGGAGTCACCTAGTGCAG	3350 fluorescence intensity (a.u.)
ATGTTTCTATGACATAAAGATCTAATGATAAATCATTTATCGGAGTCACCTAGTGCAG	4570 fluorescence intensity (a.u.)
GTTGAAGGTTCGCCGCGCCACGCATCAAACCATATCTGCACGGAGTCACCTAGTGCAG	4320 fluorescence intensity (a.u.)
GGAGGTGAGGATCAGAGGAGGCAGCCTCATCGTCATGCTTCGGAGTCACCTAGTGCAG	3410 fluorescence intensity (a.u.)
ACTGGTTTAGACGGTTACGTGTATGCCACTACGTACTTTTCGGAGTCACCTAGTGCAG	7360 fluorescence intensity (a.u.)
TCCTACCTCGATGTCGCGCGGCGGCCTCCTCTGACGCGGCCGGAGTCACCTAGTGCAG	5460 fluorescence intensity (a.u.)
GTGATGCAGGCAAGAAACCCGGGCACACACATGGCTATTCCGGAGTCACCTAGTGCAG	24600 fluorescence intensity (a.u.)
CTTATTAACCCTTTCAAGTTCCACGTTAAAATTAGAAGTTCGGAGTCACCTAGTGCAG	38000 fluorescence intensity (a.u.)

Two entries drawn at random from those above:
Sequence	binding signal
TGGTTGTATTAGGTTAATAAGCCACGTCAGTGAAAAGCACCGGAGTCACCTAGTGCAG	16100 fluorescence intensity (a.u.)
TATATATACACGTCTATACCCACACGTTGATTAATGCGAGCGGAGTCACCTAGTGCAG	4960 fluorescence intensity (a.u.)
